These are yes or no findings as the source states them, for the method shown. Some binding calls cover weakened binding; strength is not graded here.
Molecular target: GI-Gal4 (Arabidopsis thaliana; yeast) (UniProt Q9SQI2)
Assay: inferred from UAS-luciferase reporter in HEK 293T cells without light

Sequences of proteins named here, by UniProt entry; tags and fusion partners are left off. A change or cut given only in a name is not applied to a line headed by its entry.
UniProt Q9SQI2: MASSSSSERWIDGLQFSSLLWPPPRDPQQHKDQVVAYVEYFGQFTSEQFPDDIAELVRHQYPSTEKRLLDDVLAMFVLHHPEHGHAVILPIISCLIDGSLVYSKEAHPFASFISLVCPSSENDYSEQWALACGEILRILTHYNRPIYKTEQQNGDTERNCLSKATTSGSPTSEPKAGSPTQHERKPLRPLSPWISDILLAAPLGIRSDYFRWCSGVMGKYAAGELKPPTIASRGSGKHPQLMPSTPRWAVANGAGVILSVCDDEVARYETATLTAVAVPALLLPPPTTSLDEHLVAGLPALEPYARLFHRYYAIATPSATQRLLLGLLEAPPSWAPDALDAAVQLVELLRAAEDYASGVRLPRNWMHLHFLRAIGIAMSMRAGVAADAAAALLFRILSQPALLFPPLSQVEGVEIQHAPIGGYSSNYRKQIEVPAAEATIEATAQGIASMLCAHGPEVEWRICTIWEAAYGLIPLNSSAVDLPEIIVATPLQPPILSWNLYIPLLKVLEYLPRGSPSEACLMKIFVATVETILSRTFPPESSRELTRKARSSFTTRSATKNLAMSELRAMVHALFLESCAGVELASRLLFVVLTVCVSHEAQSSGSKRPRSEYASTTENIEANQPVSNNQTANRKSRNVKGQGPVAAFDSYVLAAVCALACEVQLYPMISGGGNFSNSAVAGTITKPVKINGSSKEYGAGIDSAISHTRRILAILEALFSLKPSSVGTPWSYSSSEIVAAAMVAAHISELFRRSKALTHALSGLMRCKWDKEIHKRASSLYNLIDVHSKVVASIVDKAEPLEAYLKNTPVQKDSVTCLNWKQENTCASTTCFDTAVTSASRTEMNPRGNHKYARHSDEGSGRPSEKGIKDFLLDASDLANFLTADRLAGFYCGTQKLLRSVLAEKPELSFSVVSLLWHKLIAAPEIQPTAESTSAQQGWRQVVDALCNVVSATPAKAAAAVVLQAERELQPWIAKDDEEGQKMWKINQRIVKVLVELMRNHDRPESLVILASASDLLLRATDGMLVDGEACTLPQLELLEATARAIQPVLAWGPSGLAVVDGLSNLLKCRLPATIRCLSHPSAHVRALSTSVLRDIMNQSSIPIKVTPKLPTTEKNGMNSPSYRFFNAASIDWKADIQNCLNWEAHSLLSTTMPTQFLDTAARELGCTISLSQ
UniProt Q9C9W9: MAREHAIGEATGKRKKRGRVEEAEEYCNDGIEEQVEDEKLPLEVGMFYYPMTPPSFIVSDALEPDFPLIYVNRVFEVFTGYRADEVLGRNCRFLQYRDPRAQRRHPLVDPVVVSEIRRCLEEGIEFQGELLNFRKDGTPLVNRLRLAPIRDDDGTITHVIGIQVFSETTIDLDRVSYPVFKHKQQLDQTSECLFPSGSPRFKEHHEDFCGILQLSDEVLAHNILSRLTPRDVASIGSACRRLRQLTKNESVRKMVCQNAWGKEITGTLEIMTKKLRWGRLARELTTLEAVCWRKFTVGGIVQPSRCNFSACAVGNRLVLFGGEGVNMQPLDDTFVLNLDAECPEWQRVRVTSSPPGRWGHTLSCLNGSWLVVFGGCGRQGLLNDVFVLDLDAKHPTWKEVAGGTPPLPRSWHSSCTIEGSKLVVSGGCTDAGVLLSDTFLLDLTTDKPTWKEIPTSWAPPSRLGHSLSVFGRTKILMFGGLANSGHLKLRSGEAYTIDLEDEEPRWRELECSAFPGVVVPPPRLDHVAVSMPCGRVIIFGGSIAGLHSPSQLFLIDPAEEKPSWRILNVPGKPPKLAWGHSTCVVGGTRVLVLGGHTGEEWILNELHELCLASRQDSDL

Q: “HA-N-LOV-VP16 WT (from UniProt Q9C9W9 1-174)” was tested. Which binding did it give?
A: binds

Source: US20120237966A1
